We go through 16 molecules from patent publication US8809529B2, “Imidazo[1,2-α]pyrazine derivatives” (Promega Corporation, priority 2010, dated 2014).

Series [1] is described as follows: Auto-luminescence characterization of coelenterazines. In kind it is physicochemical. Particulars: 20 μM on HEK293 cells in CO2 independent media plus 10% FBS; normalized to native coelenterazine.
The test system of series [2] is CHO cells. The series can be described thus: Intracellular half-life of OgLuc variants in CHO cells (cycloheximide). In kind it is cell-based. Particulars: for intracellular half-life: CMV d2 no deg.: CMV deletion variant (d2); for intracellular half-life: CMV Pest: PEST degradation signal; for intracellular half-life: CMV no deg.: cycloheximide, full strength CMV promoter.

For the molecule `O=c1c(Cc2ccc(O)cc2)nc2c(C3CC3)[nH]c(-c3ccccc3)cn1-2` [PBI-3897, 8-cyclopropyl-2-(4-hydroxybenzyl)-6-phenylimidazo[1,2-a]pyrazin-3(7H)-one], in series [1], the “Autolum (norm to coel)” value came out at 0.1. On the same count and under the same terms, the figure for `CCc1nc2c(Cc3ccccc3)[nH]c(-c3ccccc3)cn-2c1=O` [PBI-3925, 8-benzyl-2-ethyl-6-phenylimidazo[1,2-a]pyrazin-3(7H)-one] is 0.2; for `O=c1c(Cc2ccc(O)cc2)nc2c[nH]c(-c3ccccc3)cn1-2` [PBI-3894] it is 0.2. Still for that read-out and setting: then `O=c1c(Cc2ccco2)nc2c(Cc3ccccc3)[nH]c(-c3ccc(O)cc3)cn1-2` [PBI-3945], with 0.5; and `O=c1c(Cc2ccco2)nc2c(Cc3ccccc3)[nH]c(-c3ccccc3)cn1-2` [PBI-3939, 8-benzyl-2-(furan-2-ylmethyl)-6-phenylimidazo[1,2-a]pyrazin-3(7H)-one], with 0.2. Same read-out and setting: then `Oc1ccc(Cc2nc3c(Cc4ccccc4)nc(-c4ccc(O)cc4)cn3c2O)cc1` [Native coelenterazine, coelenterazine, reference compound], with 1.

Turning to `O=c1c(Cc2ccccc2)nc2c(Cc3ccccc3)[nH]c(-c3ccccc3)cn1-2` [Coelenterazine hh, bis-deoxycoelenterazine, reference compound], the “Autolum (norm to coel)” value in series [1] was determined as 0.3.

Consider `Cc1nc2c(Cc3ccccc3)[nH]c(-c3ccccc3)cn-2c1=O` [PBI-3932, 8-benzyl-2-methyl-6-phenylimidazo[1,2-a]pyrazin-3(7H)-one], for which the “Autolum (norm to coel)” value in series [1] is reported as 0.1. On the same count and under the same terms, then `Cc1[nH]c(-c2ccccc2)cn2c(=O)c(Cc3ccc(O)cc3)nc1-2` [PBI-3896, 2-(4-hydroxybenzyl)-8-methyl-6-phenylimidazo[1,2-a]pyrazin-3(7H)-one], with 0.1; and `O=c1c(Cc2cccs2)nc2c(Cc3ccccc3)[nH]c(-c3ccccc3)cn1-2` [PBI-3889, 8-benzyl-6-phenyl-2-(thiophen-2-ylmethyl)imidazo[1,2-a]pyrazin-3(7H)-one], with 0.2; and `O=c1c(Cc2cccs2)nc2c(Cc3ccccc3)[nH]c(-c3ccc(O)cc3)cn1-2` [PBI-4002], with 0.6. Still for that read-out and setting: then “coelenterazine-h [Coelenterazine h, reference compound]”, with 1.2; and `CC(C)c1[nH]c(-c2ccccc2)cn2c(=O)c(Cc3ccc(O)cc3)nc1-2` [PBI-3841], with 0.1.

For the molecule `O=c1c(Cc2ccc(O)cc2)nc2c(Cc3ccccc3)[nH]c(-c3ccccc3)cn1-2` [PBI-3840, 8-benzyl-2-(4-hydroxybenzyl)-6-phenylimidazo[1,2-a]pyrazin-3(7H)-one], the “Autolum (norm to coel)” value in series [1] was 0.2.

B1: 9B8: IV variant with Q18L, F68Y, L72Q, M75K; in Tables 12, 22, 23, 26, 27 “9B8” stands for 9B8 opt (protein)
chain: MVFTLEDFVGDWRQTAGYNLDQVLEQGGLSSLFQKLGVSVTPIQKIVLSGENGLKIDIHVIIPYEGLSGYQMGQIEKIFKVVYPVDDHHFKVILHYGTLVIDGVTPNMIDYFGRPYEGIAVFDGKKITVTGTLWNGNKIIDERLINPDGSLLFRVTINGVTGWRLCERILA
As to B1, in series [2], the “intracellular half-life: CMV d2 no deg.” value came out at 3.87 h, the “intracellular half-life: CMV Pest” value was determined as 1.43 h and the “intracellular half-life: CMV no deg.” value amounted to 6.32 h.

B2: L27V: 9B8 opt+K33N variant with L27V, T39T, K43R, Y68D (protein)
chain: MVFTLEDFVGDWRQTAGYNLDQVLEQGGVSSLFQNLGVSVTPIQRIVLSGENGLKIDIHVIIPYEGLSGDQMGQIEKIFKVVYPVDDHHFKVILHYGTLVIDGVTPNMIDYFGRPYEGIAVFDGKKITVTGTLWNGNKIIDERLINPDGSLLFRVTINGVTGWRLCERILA
With B2, in series [2], the “intracellular half-life: CMV d2 no deg.” value is 4.78 h, the “intracellular half-life: CMV Pest” value is 1.63 h and the “intracellular half-life: CMV no deg.” value amounted to 6.66 h.
